This passage reports Ki results from patent US11752155B2, “Treatment of autism spectrum disorders, obsessive-compulsive disorder and anxiety disorders” (Rugen Holdings (Cayman) Limited, priority 2016, dated 2023).

Amino acid sequences for entries named in this document (tags omitted). Residues count along the entry.
UniProt Q00960, 27-1482 limits assumed: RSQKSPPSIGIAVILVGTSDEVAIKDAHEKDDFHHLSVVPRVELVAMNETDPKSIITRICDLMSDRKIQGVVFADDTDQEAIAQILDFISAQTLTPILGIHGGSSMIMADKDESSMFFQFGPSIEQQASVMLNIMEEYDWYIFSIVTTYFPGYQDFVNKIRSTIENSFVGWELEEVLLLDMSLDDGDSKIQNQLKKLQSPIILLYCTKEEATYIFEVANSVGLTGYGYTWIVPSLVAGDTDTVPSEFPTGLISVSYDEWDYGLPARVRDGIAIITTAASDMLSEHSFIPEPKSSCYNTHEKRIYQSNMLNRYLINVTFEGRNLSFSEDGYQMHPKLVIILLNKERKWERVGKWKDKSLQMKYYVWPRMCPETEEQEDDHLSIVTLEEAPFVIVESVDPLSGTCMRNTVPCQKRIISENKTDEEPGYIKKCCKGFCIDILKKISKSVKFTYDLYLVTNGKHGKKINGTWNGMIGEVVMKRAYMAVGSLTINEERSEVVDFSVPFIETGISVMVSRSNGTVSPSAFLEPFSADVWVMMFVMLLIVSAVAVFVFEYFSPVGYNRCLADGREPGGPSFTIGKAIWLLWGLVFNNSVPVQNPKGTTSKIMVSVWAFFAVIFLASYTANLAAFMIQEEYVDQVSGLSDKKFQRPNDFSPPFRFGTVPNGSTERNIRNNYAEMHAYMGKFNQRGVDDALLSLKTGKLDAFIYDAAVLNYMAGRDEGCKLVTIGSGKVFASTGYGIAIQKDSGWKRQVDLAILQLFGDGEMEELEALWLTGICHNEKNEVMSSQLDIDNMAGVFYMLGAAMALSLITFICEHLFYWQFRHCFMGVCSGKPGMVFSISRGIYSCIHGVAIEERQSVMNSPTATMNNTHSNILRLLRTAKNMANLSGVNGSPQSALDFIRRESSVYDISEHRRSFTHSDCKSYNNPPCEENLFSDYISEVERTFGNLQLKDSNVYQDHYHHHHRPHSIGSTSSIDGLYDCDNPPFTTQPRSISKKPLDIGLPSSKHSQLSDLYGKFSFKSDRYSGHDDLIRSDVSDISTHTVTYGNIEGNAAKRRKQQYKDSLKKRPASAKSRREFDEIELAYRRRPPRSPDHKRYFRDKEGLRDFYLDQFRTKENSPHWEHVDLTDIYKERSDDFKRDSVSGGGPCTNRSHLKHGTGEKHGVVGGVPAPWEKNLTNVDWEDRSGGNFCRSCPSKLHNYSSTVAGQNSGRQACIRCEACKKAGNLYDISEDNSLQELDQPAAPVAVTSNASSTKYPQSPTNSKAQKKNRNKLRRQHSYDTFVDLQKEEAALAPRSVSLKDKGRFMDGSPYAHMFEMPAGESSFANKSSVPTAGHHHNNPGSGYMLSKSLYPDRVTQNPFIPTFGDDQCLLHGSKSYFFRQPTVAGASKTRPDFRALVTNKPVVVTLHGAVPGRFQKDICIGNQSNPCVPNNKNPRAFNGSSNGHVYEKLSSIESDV

For part of its entries the source gives two or more results. The other results are left out here. There may be further records. The values listed for one entry do not match, cause unknown; they may come from other doses, times, organisms or constructs than stated.

The target in the test is native rat brain NR2B receptors (Rattus norvegicus (Rat), UniProt P35439+Q00960). The test is described as follows: NR2B radioligand binding assay in rat brain using [3H] (E)-N1-(2-methoxybenzyl)-cinnamidine. The settings on record: read-out: inhibition constant (Ki), independent assays; high affinity site, rat brain membranes; tested as the radiolabelled form.

As a reminder, the Ki is a dissociation constant, usually derived from enzyme kinetics or from competition with a known ligand.

Take `COc1ccccc1CNC(=N)/C=C/c1ccccc1` [(E)-N1-(2-methoxybenzyl)-cinnamidine, reference compound]: the Ki is recorded as 0.193, 0.176, 0.41, 0.087 nM.
